Results are given in words; binding and its absence hold for the method and conditions named. Binding seen in cells or lysates may run through a third protein. Some binding calls cover weakened binding; strength is not graded here.
Molecular target: Serine-arginine rich splicing factor 3 (SRSF3) (human) (UniProt P84103)
Assay: co-IP; LIM1215 cells expressing SRSF3-GFP or GFP only; immunoprecipitation with an anti-GFP antibody, Western blot detection with an anti-SRSF3 antibody

- binding: binds
B1: Serine-arginine rich splicing factor 3 (SRSF3) (protein, UniProt P84103 1-164)
chain: MHRDSCPLDCKVYVGNLGNNGNKTELERAFGYYGPLRSVWVARNPPGFAFVEFEDPRDAADAVRELDGRTLCGCRVRVELSNGEKRSRNRGPPPSWGRRPRDDYRRRSPPPRRRSPRRRSFSRSRSRSLSRDRRRERSLSRERNHKPSRSFSRSRSRSRSNERK
